Results as given in patent US20050112168A1.
These are yes or no findings as the source states them, for the method shown. For some assays here: In cells and extracts the contact can be indirect. Some binding calls cover weakened binding; strength is not graded here.

Chains of the proteins cited; added tags and fusions are not shown. Lines headed by an entry give the natural chain unless they say otherwise; changes in a name come on top. Residues count along the entry.
UniProt Q13347: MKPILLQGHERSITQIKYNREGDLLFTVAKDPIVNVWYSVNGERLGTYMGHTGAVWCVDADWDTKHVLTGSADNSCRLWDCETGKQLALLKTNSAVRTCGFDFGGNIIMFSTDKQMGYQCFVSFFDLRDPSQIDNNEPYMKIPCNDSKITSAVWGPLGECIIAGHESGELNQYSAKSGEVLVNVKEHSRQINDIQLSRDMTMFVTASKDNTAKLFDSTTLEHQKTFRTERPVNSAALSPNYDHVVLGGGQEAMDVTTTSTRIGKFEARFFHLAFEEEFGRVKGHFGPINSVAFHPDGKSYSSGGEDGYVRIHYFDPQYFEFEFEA
UniProt P09889, residues 22-340: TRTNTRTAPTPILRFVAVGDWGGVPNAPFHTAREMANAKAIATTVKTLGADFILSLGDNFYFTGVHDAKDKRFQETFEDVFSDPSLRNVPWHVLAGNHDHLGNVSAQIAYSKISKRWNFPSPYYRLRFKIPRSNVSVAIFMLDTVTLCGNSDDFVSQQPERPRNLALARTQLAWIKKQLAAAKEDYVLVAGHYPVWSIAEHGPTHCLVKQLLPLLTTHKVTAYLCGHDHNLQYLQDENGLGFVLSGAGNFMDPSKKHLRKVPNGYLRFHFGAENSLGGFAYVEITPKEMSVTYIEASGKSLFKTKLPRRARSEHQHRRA
UniProt P13686: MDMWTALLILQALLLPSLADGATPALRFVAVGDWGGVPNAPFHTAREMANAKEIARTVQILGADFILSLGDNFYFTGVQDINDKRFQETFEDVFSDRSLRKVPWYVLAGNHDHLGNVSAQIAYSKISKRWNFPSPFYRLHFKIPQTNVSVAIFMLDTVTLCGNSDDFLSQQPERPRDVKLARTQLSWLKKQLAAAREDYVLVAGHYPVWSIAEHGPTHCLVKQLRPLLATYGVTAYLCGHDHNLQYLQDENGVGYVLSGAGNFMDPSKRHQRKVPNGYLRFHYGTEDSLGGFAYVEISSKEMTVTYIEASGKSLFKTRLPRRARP
UniProt B0BNA7: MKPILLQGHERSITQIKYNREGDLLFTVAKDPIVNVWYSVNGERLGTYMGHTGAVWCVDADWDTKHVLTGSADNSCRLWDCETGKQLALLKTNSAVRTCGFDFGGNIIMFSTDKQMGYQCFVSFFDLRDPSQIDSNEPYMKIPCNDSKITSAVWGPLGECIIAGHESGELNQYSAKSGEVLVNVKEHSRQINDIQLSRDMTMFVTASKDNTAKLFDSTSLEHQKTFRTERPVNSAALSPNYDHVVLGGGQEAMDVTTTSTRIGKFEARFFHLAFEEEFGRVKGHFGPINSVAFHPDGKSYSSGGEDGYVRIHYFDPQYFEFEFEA

Columns and labels:
[1] = biological target: 'HIS' tagged TRIP-1 (Homo sapiens (Human)) (UniProt Q13347); test: GST-TRAP added to transfected cells, glutathione bead pull-down from lysate, Western with anti-HIS
[2] = biological target: 'HIS' tagged TRIP-1 (Homo sapiens (Human)) (UniProt Q13347); test: GST-TRAP pull-down from 293T cell lysate (FIG. 19)
[3] = biological target: purified type V tartrate resistant acid phosphatase (TRAP), also known as uteroferrin (UniProt P09889); test: GST pull-down with glutathione beads, Far-Western detection of TRAP (FIG. 15b)
[4] = biological target: purified type V tartrate resistant acid phosphatase (TRAP), also known as uteroferrin (UniProt P09889); test: GST pull-down with glutathione beads, Far-Western detection of TRAP (FIG. 15B)
[5] = biological target: purified type V tartrate resistant acid phosphatase (TRAP), also known as uteroferrin (UniProt P09889); test: osteoblast cDNA phage display, three rounds of bio-panning on TRAP
[6] = biological target: purified type V tartrate resistant acid phosphatase (TRAP), also known as uteroferrin (UniProt P09889); test: T7 osteoblast cDNA phage display, bio-panning on immobilised TRAP
[7] = biological target: purified type V tartrate resistant acid phosphatase (TRAP), also known as uteroferrin (UniProt P09889); test: phage ELISA on immobilised TRAP, HRP anti-T7 antibody (FIG. 15a)
[8] = biological target: purified type V tartrate resistant acid phosphatase (TRAP), also known as uteroferrin (UniProt P09889); test: phage ELISA on immobilised TRAP, HRP anti-T7 antibody (FIG. 15A)

Question: How did the binding [1] turn out when “GST-TRAP fusion protein (from UniProt P13686 22-325)” was run?
Answer: binds

Question: And the binding [2]?
Answer: binds

Question: For “GST-TRIP fusion protein (human TRIP-1 fused to glutathione-S transferase) (from UniProt Q13347 1-325)”, which binding [3] is on record?
Answer: binds

Question: What about the binding [4] of the same substance?
Answer: binds

Question: Which binding [5] does the source give for “TRIP clone of the rat osteoblast cDNA phage display library in M13 phage (Example 1) (from UniProt B0BNA7 1-325)” here?
Answer: binds

Question: With “TRIP-1-expressing T7 phage (rat osteoblast cDNA library, Example 3) (from UniProt B0BNA7 1-325)” as the substance, how does the binding [6] read?
Answer: binds

Question: And the binding [7]?
Answer: binds

Question: And the binding [8]?
Answer: binds
